# In all, about 300,000 compounds went through this assay and about 3,700 (1.2%) were called active. The inconclusive results got no clear call from the source; some entries with a clear call stand among them for comparison. The call rests on the fitted dose curve; tested in HEK293 cells. Where the call is inconclusive, the potency comes from a doubtful curve fit.
# Assay: qHTS for Inhibitors of binding or entry into cells for Lassa Virus; further: nearly all actives have a fitted effect of over 50% in size
# Details: Lassa virus pseudotype entry inhibition, cell reporter; activity change, negative = inhibition: at 37.9 µM (top of the series) unless noted
# On the % scale 0 is the no-effect control and ±100 the full control effect; potency means the concentration at half of the fitted maximal effect.
Structure (SMILES),Potency,"activity change, negative = inhibition"
COC(=O)C/C=C/[C@@H](C)[C@@H](/C=N/O[C@@H](C)c1cn([C@H](CO)Cc2ccccc2)nn1)NS(=O)(=O)c1ccc(C)cc1,"inconclusive: 29.1 µM [inhibitor, partial curve, poor fit]",–
Cn1c(=O)cc(SCC(=O)N2CCN(c3ccccc3F)CC2)c2ccc(Cl)cc21,–,inactive: 11.2% [at 46.1 µM]
CN(Cc1ccccc1)S(=O)(=O)c1ccc2c(c1)n(C)c(=O)n2C,–,inactive: 8.54%
O=C(NC1CCN(Cc2ccccc2)CC1)c1ccc(Cn2c(=O)c3ccccc3n(Cc3ccc(F)cc3)c2=O)cc1,"inconclusive: 35.5 µM [inhibitor, single point]",–
O=C1N/C(=C/c2ccc(N3CCOCC3)o2)C(=O)N1c1ccccc1,"inconclusive: 35.5 µM [inhibitor, single point]",–
Cc1cc2occ(CC(=O)Nc3nnc(C4CC4)s3)c2cc1C,"inconclusive: 6.31 µM [inhibitor, single point]",–
Cc1cc(C)cc(Oc2nc3ccccn3c(=O)c2/C=C(\C#N)c2nc3ccccc3s2)c1,–,inactive: -9.92% [at 46.1 µM]
CCOc1ccc(-n2c(C)nc3cc(C(=O)NCc4ccc5c(c4)OCO5)ccc32)cc1,"inconclusive: 11.6 µM [inhibitor, single point]",–
O=C(COc1ccc(Br)cc1)N1CCN(c2ccc([N+](=O)[O-])c(N3CCCCC3)c2)CC1,–,inactive: -0.949%
COc1ccc(C(=O)Oc2c(Sc3ccc(C)cc3)c(C)nn2C(C)(C)C)cc1OC,–,inactive: -5.83% [at 46.1 µM]
Cc1ccccc1Nc1oc(-c2ccccc2)nc1-c1ccc(C(F)(F)F)cc1,–,inconclusive: 11.6% [activator] [at 14.3 µM]
Cc1cc(C(=O)NNC(=O)c2ccc(Cl)cc2Cl)c(C)o1,–,inactive: 21.5% [at 46.1 µM]
Cc1cc(C)c[n+](CC(=O)c2cc3ccccc3oc2=O)c1,–,inactive: 18%
CCn1c([N+](=O)[O-])nc2c1c(=O)[nH]c(=O)n2C,active: 18.3 µM,–
Cc1ccc(S(=O)(=O)Nc2cc(C(=O)NCCN(C)C)ccc2N2CCCCC2)cc1,"inconclusive: 35.5 µM [inhibitor, single point]",–
N#CC1=C(N)NC(SCc2ccccc2)=C(C#N)C12CCCC2,"inconclusive: 13 µM [inhibitor, partial curve]",–
CC1(C(=O)Nc2nnc(C(C)(C)C)s2)Cc2ccccc2C(=O)O1 (stereo unspecified),–,inactive: -1.15%
COc1ccc(CCNc2ncnc3c2[nH]c2cc(OC)c(OC)cc23)cc1OC,"inconclusive: 28.2 µM [inhibitor, partial curve, poor fit]",–
CCOC(=O)NC(=O)C(=CNc1cccc(C)c1)C(=O)NC(=O)OCC,"inconclusive: 6.31 µM [inhibitor, single point]",–
COc1ccc(CCNC(=O)Cc2ccc([N+](=O)[O-])cc2)cc1OC,"inconclusive: 35.5 µM [activator, single point]",–
Cc1ccc(NC(=O)C2CCN(c3nc(-c4ccc(C(C)C)cc4)no3)CC2)c(Cl)c1,"inconclusive: 11.2 µM [inhibitor, partial curve, poor fit]",–
CN(/N=C/c1ccc(Cl)cc1)c1ncc(Cl)cc1C(F)(F)F,"inconclusive: 0.891 µM [inhibitor, full curve, poor fit]",–

Structure (SMILES),Potency,"activity change, negative = inhibition"
O=C(CSc1c2c(nc3ccccc13)CCCC2)NCc1ccco1,–,inactive: 22.2%
CCN(CC)S(=O)(=O)c1ccc(Oc2ccc(S(=O)(=O)N(CC)CC)cc2)cc1,active: 14.6 µM,–
C=C(C)Cn1c(-c2ccc(OC)cc2)nc2ccccc21,–,inactive: -15.6%
O=C(c1ccc(Cl)cc1)N1CCCCC(Sc2nnc(-c3ccc4c(c3)OCO4)o2)C1=O (stereo unspecified),"inconclusive: 4.11 µM [inhibitor, partial curve, poor fit]",–
Nc1nnnn1/N=C/C(Br)=C/c1ccccc1,"inconclusive: 31.6 µM [inhibitor, single point]",–
O=C(/C=C/c1ccccc1)NC(NC(=S)Nc1cccc(Cl)c1)C(Cl)(Cl)Cl (stereo unspecified),active: 9.2 µM,–
O=C(NCCC1=CCCCC1)C(=O)NCc1ccccc1,–,inactive: 9.43%
COc1cccc(CCNS(=O)(=O)CCNC(=O)c2cccc(OC)c2)c1,–,inactive: -2.89%
Cc1ccc(NC(=O)CC2CC2)cc1-c1ccc(C(=O)NCC2CC2)cc1,active: 3.97 µM,–
CC1CC1C(=O)Nc1ccc(-c2ccccc2)cc1 (stereo unspecified),"inconclusive: 29.1 µM [inhibitor, single point]",–
Cc1ccc(-n2ncc3c(N4CCC(Cc5ccccc5)CC4)ncnc32)cc1C,–,inactive: 11.9% [at 46.1 µM]
COCCN1C(=S)NC(c2cccc(C(F)(F)F)c2)C(C(=O)N2CCOCC2)=C1C (stereo unspecified),"inconclusive: 35.5 µM [activator, single point]",–
CN(Cc1cc2cc(F)ccc2[nH]1)Cc1nc(-c2cnccn2)no1,"inconclusive: 31.6 µM [activator, partial curve, poor fit]",–
CC1=CC(=O)C=C(C)C1=NOc1ccccc1[N+](=O)[O-],"inconclusive: 5.62 µM [inhibitor, single point]",–
C=CCNC(=O)c1ccccc1NC(=O)c1ccc(Cl)c(S(=O)(=O)Nc2cccc(C)c2C)c1,"inconclusive: 3.55 µM [inhibitor, partial curve]",–
Cc1cnc(C(=O)Nc2ccc3c(c2)CCC3)cn1,"inconclusive: 0.651 µM [activator, single point]",–
Cc1ccc(N(Cc2ccco2)C(=O)c2cccc(S(=O)(=O)N(C)C)c2)cc1,"inconclusive: 20 µM [inhibitor, single point]",–
Cc1ccc2c(c1)c1c(n2CC(O)Cn2nc(C)c(Br)c2C)C(=O)CCC1 (stereo unspecified),–,inactive: 7.16%
CS(=O)(=O)N1CCN(c2cnn(-c3ccccc3)c(=O)c2Cl)CC1,–,inactive: 12.5%
CCN1CCN(c2cc(N3CCCC3)c(F)cc2[N+](=O)[O-])CC1,"inconclusive: 29.1 µM [inhibitor, single point]",–
COC(=O)c1c(C)oc2ccc(N(C(=O)c3ccncc3)S(=O)(=O)c3cc(C)ccc3C)cc12,"inconclusive: 10 µM [inhibitor, partial curve, poor fit]",–
CCCCc1nc2c(c3c1C[C@H](C)OC3)CN(S(=O)(=O)c1ccc(C)cc1)CC2,"inconclusive: 0.0335 µM [inhibitor, full curve, poor fit]",–

Structure (SMILES),Potency,"activity change, negative = inhibition"
COc1ccc(NC(=O)COC(=O)c2c3c(nc4ccccc24)CCCC3)cc1,"inconclusive: 29.1 µM [inhibitor, single point]",–
Cc1ccc(NC(=O)C(=O)NCc2ccc(/C=C(/C#N)C(=O)NCc3cccnc3)o2)cc1C,–,inactive: -0.612%
CC(=O)/C=C/c1ccc2ccccc2n1,"inconclusive: 12.6 µM [inhibitor, partial curve, poor fit]",–
Cc1nc2cccc(C(=O)Oc3ccc([N+](=O)[O-])cc3)c2o1,"inconclusive: 0.126 µM [inhibitor, full curve, poor fit]",–
O=C(Nc1ccc(Nc2ccccc2)cc1)C(Cl)Cl,"inconclusive: 6.51 µM [inhibitor, single point]",–
Oc1ccccc1C1=Nc2ncnn2C(c2ccccc2)C1 (stereo unspecified),"inconclusive: 0.461 µM [inhibitor, full curve, poor fit]",–
CCc1ccccc1NC(=O)CCC(=O)OCC(=O)c1ccc(-c2ccccc2)cc1,"inconclusive: 1.16 µM [activator, full curve, poor fit]",–
COc1ccc2c(c1)c(/C=N/Nc1nc3ccccc3[nH]1)c(C)n2C,"inconclusive: 17.8 µM [inhibitor, partial curve, poor fit]",–
COC(=O)C1=C(C(=O)OC)[C@@H]2N(C)c3ccccc3[C@@]23C[C@@H](C(=O)OC)N(C(=O)NC(C)(C)C)C3=N1,"inconclusive: 0.0841 µM [inhibitor, single point]",–
CCOc1ccc(-c2cc(CCCC(=O)NCCc3cc(OC)c(OC)c(OC)c3)no2)cc1,"inconclusive: 6.31 µM [inhibitor, partial curve]",–
Cc1cccc(NC(=O)CCNS(=O)(=O)c2ccc3c(c2)CCN3C(=O)C2CC2)c1,–,inactive: -29% [at 46.1 µM]
CCO/C([O-])=N/c1c[n+](N2CCOCC2)no1,"inconclusive: 9.2 µM [activator, partial curve, poor fit]",–
Cc1ccc(C)c(CN2C(=O)CSc3ccc(C(=O)N4CCCC4)cc32)c1,"inconclusive: 35.5 µM [inhibitor, single point]",–
CCn1c(SCC(=O)c2ccccc2)nc2c(c1=O)SC(C)C2 (stereo unspecified),"inconclusive: 6.51 µM [inhibitor, full curve, poor fit]",–
Cc1ccc(C)c(NC(=O)CSc2nnc(-c3cc4occc4n3C)n2-c2ccccc2C)c1,"inconclusive: 35.5 µM [inhibitor, single point]",–
O=C(Nc1ccc(F)cc1F)Nc1ccc(F)cc1F,"inconclusive: 14.1 µM [inhibitor, single point]",–
Cc1ccc(NC(=O)CCCn2c(=O)c3cccn3c3cccnc32)cc1C,–,inactive: -2.02% [at 46.1 µM]
Fc1ccc(-c2nnc(Cc3nnc(-c4ccc(F)cc4)o3)o2)cc1,–,inactive: 2.84%
Cc1ccc(CNC(=O)CSc2ncc3c(n2)-c2ccc(Cl)cc2N(Cc2ccccc2)S3(=O)=O)cc1,"inconclusive: 1 µM [activator, full curve, poor fit]",–
CCN(CC)CCNC(=O)c1ccc(NC(=O)c2cccc(S(=O)(=O)N3CCCCCC3)c2)cc1,"inconclusive: 0.891 µM [activator, full curve, poor fit]",–
CC(C)C(=O)Nc1ccc2nn(-c3ccccc3)nc2c1,"inconclusive: 7.08 µM [inhibitor, partial curve, poor fit]",–
COc1cc(OC)c(NC(=O)c2noc3c2CSc2ccccc2-3)cc1Cl,"inconclusive: 2.24 µM [inhibitor, full curve, poor fit]",–

# Part of the list above in order of molar mass, high to low.
Structure (SMILES),Potency,"activity change, negative = inhibition"
C=CCNC(=O)c1ccccc1NC(=O)c1ccc(Cl)c(S(=O)(=O)Nc2cccc(C)c2C)c1,"inconclusive: 3.55 µM [inhibitor, partial curve]",–
COC(=O)c1c(C)oc2ccc(N(C(=O)c3ccncc3)S(=O)(=O)c3cc(C)ccc3C)cc12,"inconclusive: 10 µM [inhibitor, partial curve, poor fit]",–
COc1cccc(CCNS(=O)(=O)CCNC(=O)c2cccc(OC)c2)c1,–,inactive: -2.89%
CC(=O)/C=C/c1ccc2ccccc2n1,"inconclusive: 12.6 µM [inhibitor, partial curve, poor fit]",–

# — PubChem BioAssay AID540256 (National Center for Advancing Translational Sciences (NCATS), 2011)
